Results published in publication PMC8665361.
No constants are given. Whether binding was seen depends on the method and setting. In cells and extracts the contact can be indirect. For part of these data: Binding calls can cover weak binding; strength is not graded here.

Protein sequences, listed by entry. Tags and fused reporters are not part of them.
UniProt Q14790: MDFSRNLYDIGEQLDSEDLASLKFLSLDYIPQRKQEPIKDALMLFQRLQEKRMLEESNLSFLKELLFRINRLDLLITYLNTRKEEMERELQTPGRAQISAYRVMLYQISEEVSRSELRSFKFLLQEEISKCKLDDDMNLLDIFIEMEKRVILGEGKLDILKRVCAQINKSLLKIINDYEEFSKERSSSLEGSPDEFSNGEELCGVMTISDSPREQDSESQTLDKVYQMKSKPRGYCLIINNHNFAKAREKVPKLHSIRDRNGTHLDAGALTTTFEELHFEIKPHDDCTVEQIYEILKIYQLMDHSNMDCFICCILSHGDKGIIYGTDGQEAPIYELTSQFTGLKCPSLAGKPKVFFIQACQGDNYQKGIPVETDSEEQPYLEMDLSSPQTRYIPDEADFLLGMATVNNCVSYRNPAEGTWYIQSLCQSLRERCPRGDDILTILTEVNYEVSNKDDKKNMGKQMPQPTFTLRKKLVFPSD

Columns and labels:
[1] = biological target: T1, endogenous FBXO7 (HEK293 cells) (human (endogenous in HEK293)) (UniProt Q9Y3I1); assay: co-IP; HEK293 cells transfected 24 h with FLAG- or HA-tagged catalytically inactive caspases; endogenous FBXO7; text: IP with anti-FLAG or anti-HA and blot with anti-FBXO7; legend: IP with anti-FBXO7
T1 sequence: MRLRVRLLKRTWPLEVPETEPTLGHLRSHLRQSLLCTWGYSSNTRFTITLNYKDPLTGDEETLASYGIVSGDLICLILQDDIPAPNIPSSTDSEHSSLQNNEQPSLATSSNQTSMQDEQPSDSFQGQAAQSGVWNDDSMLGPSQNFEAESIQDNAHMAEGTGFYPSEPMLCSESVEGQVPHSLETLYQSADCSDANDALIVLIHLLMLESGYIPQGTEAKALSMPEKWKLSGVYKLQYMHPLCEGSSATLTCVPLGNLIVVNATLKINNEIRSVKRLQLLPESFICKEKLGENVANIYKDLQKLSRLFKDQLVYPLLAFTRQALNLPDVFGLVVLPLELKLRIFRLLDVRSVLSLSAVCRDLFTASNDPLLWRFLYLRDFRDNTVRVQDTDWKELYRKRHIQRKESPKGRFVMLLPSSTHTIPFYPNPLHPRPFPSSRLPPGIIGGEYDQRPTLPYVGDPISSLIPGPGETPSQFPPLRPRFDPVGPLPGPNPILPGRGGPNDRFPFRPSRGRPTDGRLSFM

[2] = biological target: FLAG-tagged FBXO7 deletion mutant lacking the F-box (human) (UniProt Q9Y3I1); assay: co-IP; HEK293 cells transfected with caspase 8-V5/His and FLAG-FBXO7-WT or a deletion mutant; IP with anti-FLAG, blot with anti-V5; Fig. S3B

| binding [1] | binding [2] | Substance |
| --- | --- | --- |
| no binding |  | FLAG-caspase 1-C284A (enzyme) |
| no binding |  | FLAG-caspase 2-C303A (enzyme) |
|  | binds | caspase 8-V5/His (from UniProt Q14790 1-479) (enzyme) |
